Data reported in patent US20210340178A1 (FEDERALNOYE GOSUDARSTVENNOE BUDGETNOE UCHREZHDENIE …, priority 2018, published 2021).
Non-standard residues stand in square brackets, D forms with d. NMeR = CN[C@@H](CCCNC(=N)N)C(=O)O

Tests used:
[1] = general procedure: Fmoc solid-phase peptide synthesis; Rink-amide resin (Novabiochem), 0.64 mmol/g; TBTU/NMM; conditions: whole synthesis
[2] = general procedure: Fmoc solid-phase peptide synthesis; Rink-amide resin; TBTU/NMM; conditions: whole synthesis, scale 0.38 mmol
[3] = analytical HPLC, Nucleosil 100-5 C18, UV 220 nm, scale of the general procedure 0.38 mmol
[4] = 220 nm, scale of the general procedure 0.38 mmol

Substance	final HPLC purity [1, 3]	isolated mass [1]	crude HPLC purity [1, 4]	final HPLC purity [1, 4]	isolated yield ([1]; per starting amino acid, scale of the general procedure 0.38 mmol)	crude mass [2]
H-KKRAARATS-NH2	96.1%	–	–	–	–	–
H-K[dK]RAARATS-NH2 (SMILES C[C@H](NC(=O)[C@H](C)NC(=O)[C@H](CCCNC(=N)N)NC(=O)[C@@H](CCCCN)NC(=O)[C@@H](N)CCCCN)C(=O)N[C@@H](CCCNC(=N)N)C(=O)N[C@@H](C)C(=O)N[C@H](C(=O)N[C@@H](CO)C(N)=O)[C@@H](C)O)	–	0.23 g	52%	97.2%	38.8%	0.76 g
H-[NMeR]KKYKYR[dR]K-NH2 (SMILES CN[C@@H](CCCNC(=N)N)C(=O)N[C@@H](CCCCN)C(=O)N[C@@H](CCCCN)C(=O)N[C@@H](Cc1ccc(O)cc1)C(=O)N[C@@H](CCCCN)C(=O)N[C@@H](Cc1ccc(O)cc1)C(=O)N[C@@H](CCCNC(=N)N)C(=O)N[C@H](CCCNC(=N)N)C(=O)N[C@@H](CCCCN)C(N)=O)	96.8%	–	–	–	–	–
